The list shows a part of the results. Residues, ends and D or L forms follow the SMILES beside them. *: point of attachment. Cbz = O=C(OCc1ccccc1)*
Key:
Experiment in all cases: log2 fold change, soluble protein after heating vs DMSO (PISA); higher = thermal stabilisation; K562 cells, 10 uM, 30 min; active = over 0.2 and 3.5 SD of the protein, either way, in both replicates (recomputed)
erlotinib = compound: C#Cc1cccc(Nc2ncnc3cc(OCCOC)c(OCCOC)cc23)c1 [erlotinib]
How it was run: (§1)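 K562 cells at 2×10^6 cells/mL were treated for 30 min with 10 μM compound, and aliquots were heated for 3 min over 48°C-58°C before pooling. Extraction used PBS with 0.5% NP-40 at 4°C, and soluble protein was the supernatant after 21,000xg for 90 min, measured by TMTpro 16plex LC-MS/MS with channel sums equalised. Thermal stability values, relative to control samples and from duplicates, are log2 fold changes.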

The chains behind the UniProt entries cited, without tags or fusion partners. Where a name states a change or a piece, a line headed by the entry shows the natural chain unless it says otherwise.
UniProt P32856: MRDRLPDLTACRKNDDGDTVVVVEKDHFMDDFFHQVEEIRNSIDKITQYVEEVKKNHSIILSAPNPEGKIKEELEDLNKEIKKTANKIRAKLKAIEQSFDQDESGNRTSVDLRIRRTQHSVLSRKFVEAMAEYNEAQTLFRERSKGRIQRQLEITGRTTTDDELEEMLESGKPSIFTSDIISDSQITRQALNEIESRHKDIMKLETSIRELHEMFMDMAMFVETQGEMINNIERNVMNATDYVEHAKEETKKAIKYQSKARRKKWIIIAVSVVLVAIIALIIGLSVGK

[1] = compound: C/C(=N\NC(=O)C1=CC(=CC=C1)S(=O)(=O)N2CCOCC2)/C3=C(C=CC(=C3)Cl)O
How it was run: as §1

[2] = compound: C1=CC(=C(C=C1Cl)C2=NC3=NC=CN=C3C(=N2)NC4=CC=NC=C4)F
How it was run: as §1

[3] = compound: C1=CC(=CC=C1C2=NC3=C(N2)C=C(C=C3)C(=O)N)OC4=CC=C(C=C4)Cl
How it was run: as §1

[4] = compound: C1=CC2=C(C=CC(=C2)/C=C\3/C(=O)NC(=NCC4=CC=CS4)S3)N=C1
How it was run: as §1

[5] = compound: C1=CC2=NC=CN=C2C=C1/C=C/3\C(=O)NC(=O)S3
How it was run: as §1

[6] = compound: C1=CC=C(C=C1)C2=NC(=C(N2)C3=CC=NC=C3)C4=CC(=C(C=C4)Cl)O
How it was run: as §1

[7] = compound: C1=CC=C(C=C1)[C@H](COC2=CC3=C(C=C2)NC(=O)N3)NC(=O)C4=CC=CN(C4=O)CC5=CC(=C(C=C5)F)F
How it was run: as §1

[8] = compound: C1=CC=C2C(=C1)C3=NNC4=CC=CC(=C43)C2=O
How it was run: as §1

[9] = compound: C1CCN(C1)C(=O)NC2=CC=CC(=C2)NC3=NC=C(C(=N3)NCCC4=CN=CN4)Br
How it was run: as §1

[10] = compound: C1CN(CCC1(CC2=CC=C(C=C2)Cl)N)C3=NC=NC4=C3C=CN4
How it was run: as §1

IRAK-1-4 Inhibitor I = compound: C1COCCN1CCN2C3=CC=CC=C3N=C2NC(=O)C4=CC(=CC=C4)[N+](=O)[O-] [IRAK-1-4 Inhibitor I]
How it was run: as §1

ibrutinib = compound: C=CC(=O)N1CCC[C@@H](n2nc(-c3ccc(Oc4ccccc4)cc3)c3c(N)ncnc32)C1 [ibrutinib]
How it was run: as §1

[11] = compound: CC(=O)c1cnc2ccc(-c3cc(Cl)c(O)c(Cl)c3)nc2c1N[C@H]1CC[C@H](CN(C)C)CC1
How it was run: as §1

ralimetinib = compound: CC(C)(C)Cn1c(N)nc2ccc(-c3[nH]c(C(C)(C)C)nc3-c3ccc(F)cc3)nc21 [ralimetinib]
How it was run: as §1

[12] = compound: CC(C)(O)CC(=O)NCCn1ccc2ncnc(Nc3ccc(Oc4cccc(C(F)(F)F)c4)c(Cl)c3)c21
How it was run: as §1

[13] = compound: CC(C)C1=C2N=C(C=C(N2N=C1)NCC3=CC=CC=C3)NCCCCCCN
How it was run: as §1

[14] = compound: CC(C)C[C@@H](C=O)NC(=O)[C@H](CC(C)C)NC(=O)[C@H](CC(C)C)NC(=O)OCc1ccccc1
How it was run: as §1

pinometostat = compound: CC(C)N(C[C@H]1O[C@@H](n2cnc3c(N)ncnc32)[C@H](O)[C@@H]1O)[C@H]1C[C@@H](CCc2nc3cc(C(C)(C)C)ccc3[nH]2)C1 [pinometostat]
How it was run: as §1

[15] = compound: CC1=C(C(CC(=O)N1)C2=CC=C(C=C2)C(F)(F)F)C(=O)NC3=C(C=C4C(=C3)C=NN4)F
How it was run: as §1

[16] = compound: CC1=C(C2=C(C=C1)C(=O)C3=CC=CC=C3N2CCCN)C
How it was run: as §1

[17] = compound: CC1=C(C=C(C=C1)NC(=O)C2=CC(=CC=C2)C(C)(C)C#N)NC3=CC4=C(C=C3)N=CN(C4=O)C
How it was run: as §1

[18] = compound: CC1=C(C=C(C=C1)NC(=O)C2=CC(=CC=C2)N(C)C)NC(=O)C3=CC=C(C=C3)O
How it was run: as §1

[19] = compound: CC1=C(SC2=C1C(=N[C@H](C3=NN=C(N32)C)CC(=O)N)C4=CC=C(C=C4)Cl)C
How it was run: as §1

[20] = compound: CC1=C2C(=CC=C1)N=C(N(C2=O)C3=CC=CC=C3C)CN4C=NC5=C(N=CN=C54)N
How it was run: as §1

[21] = compound: CC1=CC=C(C=C1)SC2=C3C=C(SC3=CN=C2)C(=O)N
How it was run: as §1

[22] = compound: CC1=NC(=CC=C1)C2=C(N=C(N2)C(C)(C)C)C3=CC4=NC=CN=C4C=C3
How it was run: as §1

Nexturastat A = compound: CCCCN(Cc1ccc(C(=O)NO)cc1)C(=O)Nc1ccccc1 [Nexturastat A]
How it was run: as §1

vemurafenib = compound: CCCS(=O)(=O)Nc1ccc(F)c(C(=O)c2c[nH]c3ncc(-c4ccc(Cl)cc4)cc23)c1F [vemurafenib]
How it was run: as §1

[23] = compound: CCCS(=O)(=O)Nc1ccc(F)c(C(=O)c2c[nH]c3ncc(Cl)cc23)c1F
How it was run: as §1

[24] = compound: CCCc1cc(C)[nH]c(=O)c1CNC(=O)c1cc(-c2ccnc(N3CCN(C)CC3)c2)cc2c1cnn2C(C)C
How it was run: as §1

givinostat = compound: CCN(CC)Cc1ccc2cc(COC(=O)Nc3ccc(C(=O)NO)cc3)ccc2c1 [givinostat]
How it was run: as §1

barasertib = compound: CCN(CCCOc1ccc2c(Nc3cc(CC(=O)Nc4cccc(F)c4)[nH]n3)ncnc2c1)CCOP(=O)(O)O [barasertib]
How it was run: as §1

[25] = compound: CC[C@@H]1C(=O)N(C)c2cnc(Nc3ccc(C(=O)NC4CCN(C)CC4)cc3OC)nc2N1C1CCCC1
How it was run: as §1

volasertib = compound: CC[C@@H]1C(=O)N(C)c2cnc(Nc3ccc(C(=O)N[C@H]4CC[C@H](N5CCN(CC6CC6)CC5)CC4)cc3OC)nc2N1C(C)C [volasertib]
How it was run: as §1

[26] = compound: CC[C@H](C)N1C=C(C2=C(C=C(C=C21)C3=CN=C(C=C3)N4CCNCC4)C(=O)NCC5=C(C=C(NC5=O)C)C)C
How it was run: as §1

epoxomicin = compound: CC[C@H](C)[C@@H](C(=O)N[C@@H]([C@@H](C)O)C(=O)N[C@@H](CC(C)C)C(=O)[C@]1(CO1)C)NC(=O)[C@H]([C@@H](C)CC)N(C)C(=O)C [epoxomicin]
How it was run: as §1

[27] = compound: CCn1c(C(=O)N(C2CC2)C2CC2)cc2c3c(ncn3C)c(Nc3cc(C)n(C)n3)nc21
How it was run: as §1

[28] = compound: CCn1cc(-c2ccnc3[nH]c(-c4cccc(CN(C)C)c4)cc23)c(-c2ccc(NC(=O)N(C)C)cc2)n1
How it was run: as §1

[29] = compound: CN(C)CC(=O)Nc1ccc2[nH]c(=O)c3ccccc3c2c1
How it was run: as §1

rosiglitazone = compound: CN(CCOC1=CC=C(C=C1)C[C@H]2C(=O)NC(=O)S2)C3=CC=CC=N3 (racemic) [rosiglitazone]
How it was run: as §1

[30] = compound: CN1C2=C(C3=C1C(=O)N(N=C3)CC4=CC(=CC=C4)N)SC(=C2)S(=O)C
How it was run: as §1

[31] = compound: CN1CCC(CNc2ccc3ncc(-c4cccc(OC(F)(F)F)c4)n3n2)CC1
How it was run: as §1

saracatinib = compound: CN1CCN(CCOc2cc(OC3CCOCC3)c3c(Nc4c(Cl)ccc5c4OCO5)ncnc3c2)CC1 [saracatinib]
How it was run: as §1

sotrastaurin = compound: CN1CCN(c2nc(C3=C(c4c[nH]c5ccccc45)C(=O)NC3=O)c3ccccc3n2)CC1 [sotrastaurin]
How it was run: as §1

Measured: log2 fold change

STX2 (UniProt P32856)
inactive: erlotinib 0.141 | [1] -0.009 | [2] -0.006 | [3] 0.022 | [4] 0.059 | [5] -0.041 | [6] 0.25 | [7] -0.025 | [8] -0.046 | [9] -0.043 | [10] 0.033 | IRAK-1-4 Inhibitor I 0.079 | ibrutinib 0 | [11] -0.087 | ralimetinib 0.205 | [12] 0 | [13] -0.014 | [14] -0.183 | pinometostat -0.056 | [15] -0.072 | [16] 0.015 | [17] 0.019 | [18] -0.11 | [19] 0.076 | [20] 0.002 | [21] -0.118 | [22] -0.026 | Nexturastat A 0.134 | vemurafenib -0.026 | [23] -0.055 | [24] 0.051 | givinostat 0.015 | barasertib 0.063 | [25] 0.046 | volasertib 0.054 | [26] 0.042 | epoxomicin -0.008 | [27] -0.092 | [28] -0.042 | [29] 0.015 | rosiglitazone -0.008 | [30] 0.131 | [31] 0.14 | saracatinib 0.217 | sotrastaurin -0.047

From the supplement of paper PMC10849652
